# Source: PubChem BioAssay AID651640 (Broad Institute, 2012)
# Hit rate of the full screen: of about 350,000 compounds, about 6,000 (1.7%) were called active. Inconclusive means that the source gave no clear call. Such entries were picked first, then a sample of the others. Cut-off read from the data, not from the text of the source: active = CPE inhibition above about 20% (passing the limit was not always enough); inconclusive = no clear call, values can overlap the other calls; tested in BHK-21 cells.
# Test: protection of cells from dengue 2 killing – plate reader, single concentration, primary screen (AID 651640);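 note: 0% = median of neutral control wells and 100% = median of positive control wells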
# Conditions: DENV2-infected cells, cytopathic effect rescue, at 9.99 µM, stronger effect = higher value
row,Structure (SMILES),CPE inhibition
1,CC(OC(=O)CN1C(=O)c2ccccc2C1=O)C(=O)NCc1ccccc1 (stereo not drawn),inconclusive: 72.8%
2,CN1C(=O)c2cc(NS(=O)(=O)c3ccc(F)cc3)ccc2OC[C@@H]2O[C@@H](CC(=O)O)CC[C@H]21,inconclusive: 39%
3,CC(=O)NC[C@@H]1[C@H](c2ccc(-c3ccccc3)cc2)[C@H](CO)N1C(=O)C1CC1,active: 76.2%
4,CN(C)c1ccc(C#Cc2ccc3cc(CCCO)oc(=O)c3c2)cc1,active: 77.6%
5,O=C(NNC(=S)NCc1ccco1)C(c1ccccc1)c1ccccc1,inconclusive: 56.1%
6,COCC(=O)N1CCCCN2[C@@H](CO)[C@H](c3ccc(-c4ccc(C)cc4)cc3)[C@@H]2C1,active: 46.7%
7,Cc1noc(C)c1NC(=O)N(C)C[C@H]1Oc2ncc(C#CC3CC3)cc2C(=O)N([C@@H](C)CO)C[C@@H]1C,inconclusive: 23.2%
8,COc1cc(C(=O)OCC(=O)N(CC(C)C)C2CCS(=O)(=O)C2)ccc1OCC(C)C (stereo not drawn),inconclusive: 21.4%
9,COc1ccc(S(=O)(=O)N[C@@H]2CC[C@H](CCNC(=O)Cc3ccccn3)O[C@@H]2CO)cc1,inactive: 9.63%
10,CCC[C@H]1CC(=O)C=C(c2ccc(OC)cc2)ON1C(=O)OC(C)(C)C,active: 56.6%
11,NC1=NC[C@H](Cc2ccc(O)cc2)N1CCCCC1CCCCC1,inactive: -12.4%
12,CC(=O)c1cccc(Nc2nc(N3CCOCC3)nc(N3CCOCC3)n2)c1,inconclusive: 23.5%
13,COCC(=O)N1[C@H](CO)[C@@H](c2ccccc2)[C@@H]1C#N,inconclusive: 43.2%
14,COc1ccc(CCC(C)NCc2ccc(F)cc2)cc1 (stereo not drawn),active: 32.6%
15,CC(=O)Nc1cccc(C(=O)OC(C)C(=O)N2CCc3ccccc32)c1 (stereo not drawn),inconclusive: 25.5%
16,CN1CCN(CC(O)COc2ccccc2)CC1 (stereo not drawn),inactive: -4.28%
17,COc1ccc(CN(C)C[C@@H]2Oc3ccc(NS(=O)(=O)c4ccc(OC)cc4)cc3C(=O)N([C@@H](C)CO)C[C@@H]2C)cc1,inactive: -6.26%
18,Cc1cc(=O)[nH]c(SCc2cn3ccccc3n2)n1,inactive: 16.2%
19,CCn1c2nc(SCCN3CCOCC3)nnc2c2cc(C)cc(C)c21,inconclusive: 20%
20,O=C(NCC1CC1)[C@H]1[C@H](CO)[C@H]2Cn3c(cccc3=O)[C@H]2N1Cc1cccc(F)c1,inactive: 4.52%
21,CC(NC(=O)Cc1ccc(S(=O)(=O)N2CCOCC2)s1)c1ccc(Br)cc1 (stereo not drawn),inconclusive: 23.4%
22,O=C(COC(=O)COc1ccccc1)NCc1ccco1,inconclusive: 25.2%
23,Cc1ccc(OCCNC(=O)CCNS(=O)(=O)c2ccc(Br)cc2)cc1,inconclusive: 31.3%
24,O=C(O)c1ccc2c(c1)SC1=NS(=O)(=O)CCN12,inactive: -0.123%
25,O=C(C[C@H]1C[C@@H]2c3cc(NC(=O)NC4CCCC4)ccc3O[C@@H]2[C@@H](CO)O1)NCc1ccccn1,inactive: 17.4%

row,Structure (SMILES),CPE inhibition
1,COc1ccc(C(=O)Nc2nc(CC(=O)NCCc3ccccc3)cs2)cc1,inactive: -6.52%
2,CC(C)NC(=O)N[C@@H]1C=C[C@@H](CC(=O)NCc2ccc(Oc3ccccc3)cc2)O[C@H]1CO,inactive: 6.4%
3,C[C@H]1CN([C@@H](C)CO)C(=O)c2cc(-c3ccccc3)cnc2O[C@H]1CN(C)C(=O)c1ccccn1,inactive: -0.525%
4,Cc1ccc(NC(=O)C(=O)NCc2ccco2)c(C)c1,inconclusive: 23.6%
5,COc1ccccc1C#Cc1ccc2c(c1)[C@H]1[C@H](CCN1C(=O)c1ccc(F)cc1)[C@H](CO)N2,inconclusive: 33.9%
6,CCCc1ccc2oc(C(=O)N(Cc3nccn3C)C(C)C)c(C)c2c1,inconclusive: 39.8%
7,Cc1ccccc1-c1ccc([C@H]2[C@@H](CO)N3CCCCN(C(=O)Nc4cccc(F)c4)C[C@H]23)cc1,active: 45.1%
8,O=C(C[C@H]1C[C@@H]2c3cc(NC(=O)Nc4ccc(F)cc4)ccc3O[C@@H]2[C@H](CO)O1)NC1CCCCC1,inactive: 9.26%
9,C[C@@H]1CCCCO[C@H](CN(C)C(=O)NC2CCCCC2)[C@@H](C)CN([C@H](C)CO)C(=O)c2cc(NC(=O)CCCCCC(=O)Nc3ccccc3N)ccc2O1,active: 112%
10,CN(C)C(=O)c1cccc(-c2ccccc2[C@H]2[C@@H](C#N)N(C(=O)C3CCC3)[C@H]2CO)c1,inactive: 7.28%
11,C[C@H](CO)N1C[C@H](C)[C@H](CN(C)C(=O)Nc2ccc3c(c2)OCO3)OCCCC[C@H](C)Oc2ccc(NC(=O)Nc3ccccc3)cc2C1=O,inactive: -6.71%
12,COc1ccc(S(=O)(=O)N(C)C[C@H]2Oc3c(NC(=O)Nc4ccc5c(c4)OCO5)cccc3C(=O)N([C@@H](C)CO)C[C@H]2C)cc1,inconclusive: 20.9%
13,Cc1cc(=O)oc2c(C)c(OC(C)C(=O)NC(Cc3c[nH]c4ccc(O)cc34)C(=O)O)ccc12 (stereo not drawn),active: 76.8%
14,O=C(OCC(=O)c1ccc(Cl)s1)c1ccc(CO)cc1,inconclusive: 26.2%
15,Cc1nn(-c2ccccc2)c(C)c1/C=N/NC(=O)c1cc(-c2cccs2)[nH]n1,inconclusive: 35.4%
16,CCN1C(=O)N[C@@H]2C[C@H](C(=O)N3CCCC3)[C@H](C)[C@H](c3ccccc3)C[C@@H]21,inconclusive: 27.7%
17,CNC(=O)C1(C)C=CC2(CCCCC2)N1C(=O)OC (stereo not drawn),active: 21.7%
18,O=C(NCCO)c1ccc2c3n(nc2c1)-c1ccccc1CO3,active: 68.8%
19,COc1ccc(C#Cc2ccc3c(c2)O[C@H](CN(C)C(C)=O)[C@@H](C)CN([C@@H](C)CO)S3(=O)=O)cc1,inconclusive: 61.7%
20,COc1ccc(S(=O)(=O)N2CCN(C(=O)CC(C)C)CC2)cc1,inconclusive: 82.5%
21,C[C@H]1CCCCO[C@@H](CN(C)C(=O)CCCN(C)C)[C@@H](C)CN([C@@H](C)CO)C(=O)c2cc(NC(=O)C3CCCCC3)ccc2O1,inconclusive: 23.5%
22,CCOc1ccc(C(=O)NCC(c2ccco2)N2CCOCC2)cc1 (stereo not drawn),active: 26%
23,CCCCCC(=O)Nc1ccc(S(=O)(=O)NC2=NCCCCC2)cc1,inconclusive: 20.9%
24,COc1cccc(C2NC(=S)NC(C)=C2C(C)=O)c1 (stereo not drawn),active: 57.4%
25,O=C(C[C@@H]1CC[C@@H](NC(=O)CCN2CCCCC2)[C@@H](CO)O1)NCc1ccc(Cl)c(Cl)c1,inconclusive: 23%

# Given with bars between the fields: 13 of the compounds above.
row | Structure (SMILES) | CPE inhibition
5 | COc1ccccc1C#Cc1ccc2c(c1)[C@H]1[C@H](CCN1C(=O)c1ccc(F)cc1)[C@H](CO)N2 | inconclusive: 33.9%
6 | CCCc1ccc2oc(C(=O)N(Cc3nccn3C)C(C)C)c(C)c2c1 | inconclusive: 39.8%
7 | Cc1ccccc1-c1ccc([C@H]2[C@@H](CO)N3CCCCN(C(=O)Nc4cccc(F)c4)C[C@H]23)cc1 | active: 45.1%
8 | O=C(C[C@H]1C[C@@H]2c3cc(NC(=O)Nc4ccc(F)cc4)ccc3O[C@@H]2[C@H](CO)O1)NC1CCCCC1 | inactive: 9.26%
9 | C[C@@H]1CCCCO[C@H](CN(C)C(=O)NC2CCCCC2)[C@@H](C)CN([C@H](C)CO)C(=O)c2cc(NC(=O)CCCCCC(=O)Nc3ccccc3N)ccc2O1 | active: 112%
10 | CN(C)C(=O)c1cccc(-c2ccccc2[C@H]2[C@@H](C#N)N(C(=O)C3CCC3)[C@H]2CO)c1 | inactive: 7.28%
11 | C[C@H](CO)N1C[C@H](C)[C@H](CN(C)C(=O)Nc2ccc3c(c2)OCO3)OCCCC[C@H](C)Oc2ccc(NC(=O)Nc3ccccc3)cc2C1=O | inactive: -6.71%
12 | COc1ccc(S(=O)(=O)N(C)C[C@H]2Oc3c(NC(=O)Nc4ccc5c(c4)OCO5)cccc3C(=O)N([C@@H](C)CO)C[C@H]2C)cc1 | inconclusive: 20.9%
13 | Cc1cc(=O)oc2c(C)c(OC(C)C(=O)NC(Cc3c[nH]c4ccc(O)cc34)C(=O)O)ccc12 (stereo not drawn) | active: 76.8%
14 | O=C(OCC(=O)c1ccc(Cl)s1)c1ccc(CO)cc1 | inconclusive: 26.2%
15 | Cc1nn(-c2ccccc2)c(C)c1/C=N/NC(=O)c1cc(-c2cccs2)[nH]n1 | inconclusive: 35.4%
16 | CCN1C(=O)N[C@@H]2C[C@H](C(=O)N3CCCC3)[C@H](C)[C@H](c3ccccc3)C[C@@H]21 | inconclusive: 27.7%
17 | CNC(=O)C1(C)C=CC2(CCCCC2)N1C(=O)OC (stereo not drawn) | active: 21.7%

# Following part:

row,Structure (SMILES),CPE inhibition
1,C[C@H]1CN([C@@H](C)CO)C(=O)c2c(c3ccccc3n2C)-c2ccccc2CO[C@H]1CN(C)Cc1ccc(Cl)c(Cl)c1,inactive: 19.2%
2,COC(=O)C1=CN(c2ccc(N3CCOCC3)cc2)C(N)=C(C#N)C1c1ccc(-c2ccccc2)cc1 (stereo not drawn),inconclusive: 54.3%
3,COc1ccc(C2C3=C(CC(C)(C)CC3=O)N(CCN3CCOCC3)C3=C2C(=O)CC(C)(C)C3)cc1,inconclusive: 20.6%
4,CC(C)CC#Cc1cnc2c(c1)C(=O)N([C@@H](C)CO)C[C@@H](C)[C@@H](CN(C)C(=O)Cc1ccncc1)O2,active: 27.9%
5,C/C=C/c1ccc2c(c1)O[C@H](CN(C)S(=O)(=O)c1ccccc1OC)[C@@H](C)CN([C@H](C)CO)S2(=O)=O,inconclusive: 35.9%
6,COc1ccc(S(=O)(=O)N(C)C[C@@H]2Oc3ccc(NS(C)(=O)=O)cc3CC(=O)N([C@@H](C)CO)C[C@H]2C)cc1,active: 47.8%
7,C[C@H]1CN([C@@H](C)CO)C(=O)CCCn2cc(nn2)CO[C@@H]1CN(C)C(=O)c1ccncc1,inconclusive: 28.6%
8,CCc1cnc(N2[C@@H](C#N)[C@@H](c3ccccc3)[C@@H]2CO)s1,active: 49.5%
9,Cc1ccc(Nc2nc(NCC3CCCO3)nc(N)c2[N+](=O)[O-])cc1C (stereo not drawn),inconclusive: 27.5%
10,C/C=C/c1ccc(C2[C@@H]3CN(C(=O)Nc4ccccc4F)C[C@H]2N3)cc1 (stereo partly drawn),inconclusive: 22.7%
11,CC1(C)CC(=O)N(CC(=O)N2CCN(c3ncccn3)CC2)c2ccccc2S1(=O)=O,inconclusive: 23%
12,CCOc1ccccc1C1C(C(=O)Nc2ccccc2OC)=C(C)Nc2nc(CCCO)nn21 (stereo not drawn),active: 57.3%
13,COc1ccc2c3c(n(C)c2c1)[C@@H](CO)N(Cc1ccccc1OC)CC31CN(CC2CCOCC2)C1,inconclusive: 53.9%
14,O=C(C=CC(=O)OC1CCCCC1)OC1CCCCC1,inconclusive: 28.2%
15,O=C(N[C@@H]1CC[C@H](CCNS(=O)(=O)c2ccc(F)cc2)O[C@@H]1CO)C1CCOCC1,inconclusive: 27.6%
16,O=C(Nc1ccc(Cl)cc1)N[C@H]1CC[C@@H](CCn2cc(Cc3ccccc3)nn2)O[C@H]1CO,active: 45.8%
17,O=C(Oc1ccc(-c2nnco2)cc1)c1ccc(F)c(S(=O)(=O)N2CCOCC2)c1,inconclusive: 20.7%
18,CC(C)CCN(C)C1CCN(C(=O)Nc2c(F)cccc2F)CC1,inconclusive: 20.2%
19,C#CCOCCOCCOCCNc1nc(N2CCN(C(=O)[C@H](CC(N)=O)n3cc(C(N)[C@@H](C)CC)nn3)CC2)nc(N2CCN(C(=O)[C@H](CCC(=O)O)n3cc([C@@H](N)CCCCN)nn3)CC2)n1 (stereo partly drawn),inconclusive: 51.5%
20,CCCN(C)C[C@@H]1Oc2cc(C3=CCCCC3)ccc2S(=O)(=O)N([C@@H](C)CO)C[C@@H]1C,inactive: -3.37%
21,CC(C)[C@@H](CO)NC(=O)[C@H]1[C@@H](c2ccccc2)N(c2ccccc2)O[C@@H]1C,inactive: -2.09%
22,C[C@@H]1CN([C@@H](C)CO)C(=O)c2cc(NS(=O)(=O)c3ccccc3)ccc2O[C@@H](C)CCCCO[C@H]1CN(C)C(=O)Cc1ccccc1,inactive: -5.6%
23,CC(=O)Oc1ccc(C2=NN(c3ccccc3)C(c3ccccc3)C2)cc1 (stereo not drawn),inconclusive: 24.3%
